## Primary screen of a compound library

Amino acid sequences for entries named in this document (tags omitted). Residues count along the entry.
UniProt Q4DA54, 1-478: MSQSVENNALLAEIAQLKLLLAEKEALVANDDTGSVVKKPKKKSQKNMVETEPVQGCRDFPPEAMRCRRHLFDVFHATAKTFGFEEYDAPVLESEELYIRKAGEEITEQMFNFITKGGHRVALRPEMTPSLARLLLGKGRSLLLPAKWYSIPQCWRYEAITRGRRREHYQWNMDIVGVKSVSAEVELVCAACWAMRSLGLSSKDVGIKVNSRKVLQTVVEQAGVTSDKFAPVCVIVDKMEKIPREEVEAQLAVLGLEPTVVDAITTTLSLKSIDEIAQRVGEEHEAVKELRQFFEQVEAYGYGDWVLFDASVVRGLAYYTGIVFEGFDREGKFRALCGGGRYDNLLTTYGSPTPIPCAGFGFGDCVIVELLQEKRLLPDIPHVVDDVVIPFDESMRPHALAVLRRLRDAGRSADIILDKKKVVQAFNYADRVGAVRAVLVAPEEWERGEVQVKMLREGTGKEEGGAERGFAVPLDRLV
UniProt P9WPC5, whole entry: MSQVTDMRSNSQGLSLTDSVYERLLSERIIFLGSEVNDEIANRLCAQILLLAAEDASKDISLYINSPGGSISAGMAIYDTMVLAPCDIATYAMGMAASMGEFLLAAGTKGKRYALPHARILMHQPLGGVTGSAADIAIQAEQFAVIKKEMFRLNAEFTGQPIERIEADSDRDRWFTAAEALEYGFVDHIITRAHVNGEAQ
UniProt P9WPC3, whole entry partner: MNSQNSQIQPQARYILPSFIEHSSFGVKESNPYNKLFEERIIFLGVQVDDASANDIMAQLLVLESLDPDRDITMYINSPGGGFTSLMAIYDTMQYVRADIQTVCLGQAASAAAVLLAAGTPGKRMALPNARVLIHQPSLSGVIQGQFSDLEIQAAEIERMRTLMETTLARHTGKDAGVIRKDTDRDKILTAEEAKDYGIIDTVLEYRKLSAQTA
UniProt Q8IDJ8, 1-583: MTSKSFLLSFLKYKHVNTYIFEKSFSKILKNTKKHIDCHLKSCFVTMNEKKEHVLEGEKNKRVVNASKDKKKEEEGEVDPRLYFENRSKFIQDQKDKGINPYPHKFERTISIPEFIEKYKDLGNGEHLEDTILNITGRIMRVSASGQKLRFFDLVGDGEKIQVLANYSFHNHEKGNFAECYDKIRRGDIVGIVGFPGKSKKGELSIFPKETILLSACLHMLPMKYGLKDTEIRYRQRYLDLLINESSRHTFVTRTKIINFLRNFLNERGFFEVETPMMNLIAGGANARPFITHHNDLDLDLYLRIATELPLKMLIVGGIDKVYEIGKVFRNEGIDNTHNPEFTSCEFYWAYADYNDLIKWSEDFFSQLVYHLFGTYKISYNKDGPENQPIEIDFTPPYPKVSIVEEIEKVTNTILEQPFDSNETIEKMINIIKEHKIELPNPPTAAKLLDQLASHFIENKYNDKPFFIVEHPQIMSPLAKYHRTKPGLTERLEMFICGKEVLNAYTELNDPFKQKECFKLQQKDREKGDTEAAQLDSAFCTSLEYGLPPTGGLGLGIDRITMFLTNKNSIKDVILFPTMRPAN

Measurements from “University of Dundee, Small-Polar-MMV Screening Library” (2021), ChEMBL document CHEMBL3988442.

Leishmania in macrophages: 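Cell assay of Leishmania donovani living inside macrophages; the read-out is not stated. Concentration: 30 µM. Higher reads as stronger inhibition (inferred: compounds with an IC50 in retests scored well above the rest). Size under these conditions: about 69,000 compounds, about 1,000 of them at 50% or above in at least one test.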
TcHisRS: 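Histidine-tRNA ligase, Trypanosoma cruzi CL Brener (UniProt Q4DA54). Enzyme assay of histidyl-tRNA synthetase; the read-out is not stated. Concentration: 30 µM. Higher reads as stronger inhibition (inferred: compounds with an IC50 in retests scored well above the rest). Of about 69,000 compounds tested this way, about 31 (0.045%) reached 50% or more in at least one test.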
ClpP1P2: 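Protease assay of ClpP1P2, read by the AMC dye that it sets free. Target: ClpP1P2, Mycobacterium tuberculosis (UniProt P9WPC5 and UniProt P9WPC3). Compounds at 50 µM. Higher reads as stronger inhibition, judged from the few compounds that gave an IC50. Most other retested compounds had strongly negative values. Size under these conditions: about 69,000 compounds, about 10 of them at 50% or above in at least one test.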
Toxoplasma: 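Assay of Toxoplasma gondii numbers, read through their beta-galactosidase reporter with a colour substrate. Tested at 10 µM. The record gives no direction; the compounds picked for IC50 retests had high values, so higher reads as fewer parasites. About 67,000 compounds were tested under these conditions; 0.38% (about 260) showed 50% or more at least once.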
PfKRS1: 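Enzyme assay of the cytosolic lysyl-tRNA synthetase in 384-well plates, read by luminescence. Target: Lysine-tRNA ligase, Plasmodium falciparum 3D7 (UniProt Q8IDJ8). Concentration: 30 µM. Direction is inferred from only a few compounds that gave an IC50; most scored high, so higher reads as stronger inhibition. Size under these conditions: about 69,000 compounds, about 49 of them at 50% or above in at least one test.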

The filed quantity is “Percent Effect” (%).
The controls that fix the scale are not given in the record; negative values are as filed.
Compounds were drawn at random from those tested, without regard to their results.
Two or more numbers in one place are separate tests of the same structure; such repeats can differ widely.
A dash means the value is not listed here; it may have been measured.

| # | structure | Leishmania in macrophages | TcHisRS | ClpP1P2 | Toxoplasma | PfKRS1 |
|---|---|---|---|---|---|---|
| 1 | `CNC(=O)C1(N(C)CCc2ccccc2)Cc2ccccc2C1` | 12.72 | 5.464 | -14.53 | 52.85 | -0.7285 |
| 2 | `O=C1COC2(CCN(C(=O)[C@H]3CCCO3)CC2)CN1Cc1ccccn1` | 10.61 | 5.6 | 0.1019 | 1.898 | 2.932 |
| 3 | `CCSCCNC(=O)Nc1cc(C(=O)N2CCOCC2)ccc1Cl` | 3.827 | -2.299 | -4.596 | -10.15 | -4.513 |
| 4 | `CCNC(c1cccnc1)c1ccc(F)c(C)c1` (centres undefined) | 23.98 | 0.8596 | -7.895 | 12.93 | 0.9643 |
| 5 | `CCC(CC)c1cc(C(=O)N2CCN(C(C#N)C(C)C)CC2)on1` (centres undefined) | 1.247 | 3.448 | -6.773 | -3.329 | 10.06 |
| 6 | `Cc1cc(C(=O)NCC(=O)NC(c2ncccc2C)C(C)C)c(C)o1` (centres undefined) | -16.04 | 4.972 | -0.06044 | 16.94 | -0.9321 |
| 7 | `Cc1cnn(CC2CN(Cc3nc4ccccc4c(=O)[nH]3)CCO2)c1` (centres undefined) | 14.64 | 3.207 | -74.41 | -2.412 | 2.14 |
| 8 | `Cn1cc(C[C@H]2[C@H](O)CCN2Cc2ccc(F)cc2)cn1` | - | 15.69 | 11.01 | - | 2.015 |
| 9 | `CC1CCCN(C(=O)Nc2ccc(F)c(C(N)=O)c2)C1` (centres undefined) | 9.481 | 7.623 | -13.31 | -10.11 | 9.526 |
| 10 | `Cn1nc(COCC2CC2)c2c1CCN(C(=O)c1ccno1)C2` | 23.84 and 17.24 | 4.301 | 4.409 | 0.315 | -1.109 |
| 11 | `COCCCNC(=O)CN1CCCC1c1c(C)nn(C)c1Cl` (centres undefined) | -9.105 | 1.128 | -2.43 | 9.168 | 1.04 |
| 12 | `Cc1nc(C)c(CC(=O)N2CCN(CC(C)C)CC2)c(=O)[nH]1` | 14.83 | -15.27 | -16.03 | 2.245 | 2.774 |
| 13 | `COCC(=O)N1Cc2nccn2CC(CN(C)Cc2cccnc2)C1` (centres undefined) | 24.51 | 4.926 | 3.011 | -2.129 | 1.509 |
| 14 | `CCc1c(C)sc2ncnc(N3CC[C@@H](N4CCC(O)CC4)[C@H](O)C3)c12` | 24.09 | 10.39 | 3.547 | -0.5965 | 3.266 |
| 15 | `CN(C)c1ccc(NC(=O)C2CN(Cc3ccccc3)CCO2)cn1` (centres undefined) | 8.072 | 10 | -1.292 | -1.628 | 6.862 |
| 16 | `O=C(CC1=CCCCC1)Nc1ccc(CN2C(=O)CCC2=O)cc1` | -19.22 | 5.946 | -9.971 | -11.69 | 2.543 |
| 17 | `Cc1nccc(N2CCC(Cc3cccc(C(=O)O)c3)CC2)n1` | -8.256 | 5.435 | -8.683 | 8.896 | 7.404 |
| 18 | `CCCn1cc(C(=O)N[C@H]2CC[C@H](n3cnnc3)CC2)c(C)n1` | 11.19 | 3.518 | -6.982 | -8.273 | 4.327 |
| 19 | `CN1CCCC(c2cccc(Cc3ccccc3Cl)n2)C1` (centres undefined) | 44.94 | 1.622 | -4.63 | 3.523 | -4.616 |
| 20 | `CCC(C)Oc1ccc(CNCCc2c[nH]cn2)cc1Cl` (centres undefined) | 99.79 | 13.07 | -11.95 | 81.15 | -1.531 |
| 21 | `CCN(CCC(=O)NC1CC1)Cc1ccc(Cl)s1` | 2.644 | 0 | -2.391 | 0.05348 | 5.107 |
| 22 | `CN(C)CCN1C(=O)CCCC12CCCN(C(=O)c1cc[nH]n1)C2` (centres undefined) | - | 9.497 | -2.85 | - | 4.054 |
| 23 | `Cc1nn(C)c2nc(N3CCC(C(O)c4ccccn4)CC3)sc12` (centres undefined) | 50.06 | -6.704 | -2.783 | 5.902 | 3.826 |
| 24 | `CC1c2ncc(COCC3CCCC3)n2CCN1S(=O)(=O)N(C)C` (centres undefined) | 17.36 | 0 | 0.9222 | -3.398 | 4.859 |
| 25 | `CC(CNC(=O)N1CCN(c2ncccn2)CC1)Cc1cccs1` (centres undefined) | -10.28 | -1.087 | -7.684 | -2.021 | -4.102 |
| 26 | `c1ccc2oc(N3CCCCC3Cn3cncn3)nc2c1` (centres undefined) | 0.8608 | 0.3831 | 1.832 | 3.554 | -5.979 |
| 27 | `c1ncn(CC2CCCN(Cc3cn4ccsc4n3)C2)n1` (centres undefined) | -14.5 | 6.158 | 9.318 | 14.95 | -1.171 |
| 28 | `COc1ncccc1CNCc1c(C(C)C)nn(C)c1Cl` | 2.034 | 2.717 | 14.35 | -4.083 | 3.767 |
| 29 | `COc1ccc(NC(=O)c2cnc(C3CCN(C(C)=O)C3)nc2C)cc1` (centres undefined) | -20.46 | -0.565 | 4.712 | 1.911 | -0.5517 |
| 30 | `Cn1ncc2c(N[C@H]3CC[C@@H](N)CC3)nc(C(C)(C)C)nc21` | 100.6 | 4.598 | -15.96 | - | -4.508 |
| 31 | `COc1ccccc1Oc1ncccc1CNC(=O)CN1CCCC1=O` | 15.35 | 1.961 | -29.52 | 2.913 | 1.288 |
| 32 | `Cc1nn(C)cc1C(=O)N1CCCn2nc(CN3CC[C@H](F)C3)cc2C1` | 33.15 | 6.667 | -2.814 | -28.75 | -2.719 |
| 33 | `Cc1noc(C)c1-c1cccc(C2CN(S(=O)(=O)N(C)C)CCO2)n1` (centres undefined) | 23.69 | 9.848 | -6.748 | 33.17 | 4.896 |
| 34 | `c1ccc2c(c1)CCC21CN(CCc2ccncc2)CCO1` (centres undefined) | 4.869 | 5.464 | -7.811 | 17.19 | 3.448 |
| 35 | `O=C(NCC1CC1)c1cc2c(s1)CCN2C(=O)c1ccc(F)cc1` | 12.78 | -2.857 | -17.78 | 9.963 | 0.3066 |
| 36 | `Cc1ccc(C(=O)NC2CCN(C(=O)Nc3ccccn3)CC2)s1` | -1.335 | 3.79 | -21.8 | 9.283 | -0.6773 |
| 37 | `CNC(=O)[C@@H]1CN(C(=O)C(C)C)C[C@H]1c1ccnc(N2CCCC2)n1` | - | 4.286 | -14.05 | - | 2.06 |
| 38 | `Cn1ccc2c(-c3cc(N4CCOCC4)ncn3)ccnc21` | -19.8 | 6.931 | -430.9 | -13.22 | 3.003 |

Repeated from the top, 4 entries:

structure	Leishmania in macrophages	TcHisRS	ClpP1P2	Toxoplasma	PfKRS1
CNC(=O)C1(N(C)CCc2ccccc2)Cc2ccccc2C1	12.72	5.464	-14.53	52.85	-0.7285
O=C1COC2(CCN(C(=O)[C@H]3CCCO3)CC2)CN1Cc1ccccn1	10.61	5.6	0.1019	1.898	2.932
CCSCCNC(=O)Nc1cc(C(=O)N2CCOCC2)ccc1Cl	3.827	-2.299	-4.596	-10.15	-4.513
CCNC(c1cccnc1)c1ccc(F)c(C)c1 (centres undefined)	23.98	0.8596	-7.895	12.93	0.9643